{"source": "patent US20170218047A1", "about": "“NOVEL FUSION PARTNERS FOR THE PURPOSE OF CRYSTALLIZING G-PROTEIN COUPLED RECEPTORS” (THE SCRIPS RESEARCH INSTITUTE, priority 2011, published 2017)", "molecules": {"B1": {"name": "S1P1-flavodoxin: S1P1 receptor with flavodoxin replacing part of ICL3, SEQ ID NO: 3 (protein, listed as Homo sapiens)", "chain": "MGPTSVPLVKAHRSSVSDYVNYDIIVRHYNYTGKLNISADKENSIKLTSVVFILICCFIILENIFVLLTIWKTKKFHRPMYYFIGNLALSDLLAGVAYTANLLLSGATTYKLTPAQWFLREGSMFVALSASVFSLLAIAIERYITMLKMKLHNGSNNFRLFLLISACWVISLILGGLPIMGWNCISALSSCSTVLPLYHKHYILFCTTVFTLLLLSIVILYCRIYSLVRTRAKALIVYGSTTGNTEYTAETIARELADAGYEVDSRDAASVEAGGLFEGFDLVLLGCSTWGDDSIELQDDFIPLFDSLEETGAQGRKVACFGCGDSSWEYFCGAVDAIEEKLKNLGAEIVQDGLRIDGDPRAARDDIVGWAHDVRGAIASRSSENVALLKTVIIVLSVFIACWAPLFILLLLDVGCKVKTCDILFRAEYFLVLAVLNSGTNPIIYTLTNKEMRRAFIRIM"}}, "test": "Size exclusion chromatography (SEC) of purified S1P1-fusion partner proteins", "format": "physicochemical", "details": "SEC traces, data not shown", "protocol": "S1P1-fusion partner proteins (“S1P1 fusion receptors”) were purified from membranes by dodecyl-maltoside (DDM) extraction followed by immobilized metal affinity chromatography (IMAC) on Talon resin (Clontech) as detailed below. Frozen cellular membranes were thawed by adding room temperature lysis buffer to a total volume of 25 mL. The S1P1 receptor antagonist W146 was added to a final concentration of 125 μM. The mixture was allowed to incubate at room temperature for 1 hour to ensure complete saturation of the receptor with ligand followed by addition of iodoacetamide to a concentration of 1 mg/mL and an additional 1 hour incubation at 4° C. Receptor solubilization was initiated by addition of detergent and cholesteryl hemisuccinate (CHS) to achieve a final concentration of 0.5% DDM 0.1% CHS. The solubilization buffer consisted of the following mixture: 50 mM Hepes pH 7.5; 800 mM NaCl; 30 mM Imidazole; 0.1% DDM 0.02% CHS; 125 μM W146. […]\nEluted proteins were analyzed by size-exclusion chromatography (SEC) followed by SDS-PAGE. […] SEC fractions corresponding to S1P1-fusion partner proteins were evaluated separated by SDS-PAGE on a 10% gel and stained, confirming that each S1P1-fusion partner protein could be purified to near-homogeneity (data not shown).", "note": "Some results were stated once for a whole list of compounds, not compound by compound."}
{"molecule": "B1", "values": [{"measurement": "concentration at which protein remained monodisperse", "result": "> 50000", "unit": "µg/mL"}]}
